Assay results taken from patent US11393988B2, “Metal complexes” (Merck Patent GmbH, priority 2014, dated 2022).

Test: Vacuum-processed OLEDs with the complexes as phosphorescent emitter (efficiency, voltage, colour, lifetime)
Settings: for LT80 (h) 1000 cd/m^2: orange-red, yellow and green OLEDs, time to 80% of initial luminous density 1000 cd/m^2; for Voltage (V) 1000 cd/m^2 / EQE (%) 1000 cd/m^2: vacuum-processed OLED, at 1000 cd/m^2; for EQE (%) 1000 cd/m^2: complex as emitter in EML (structure per Table 1)

Row | SMILES | LT80 (h) 1000 cd/m^2 [h] | Voltage (V) 1000 cd/m^2 [V] | EQE (%) 1000 cd/m^2 [%]
1 | CC(C)(C)c1ccc(-c2cc3c(c[c]2[Ir]([c]2ccccc2-c2ccccn2)[c]2ccccc2-c2ccccn2)C(C)(C)CCC3(C)C)nc1 [Ir502] | 20000 | 3.2 | 23.9
2 | CC1(C)CCC(C)(C)c2c[c]([Ir]([c]3ccccc3-c3ccccn3)[c]3ccccc3-c3ccccn3)c(-c3ccc(-c4ccccc4)cn3)cc21 [Ir501] | 27000 | 3.1 | 24.0
3 | CC1(C)CCC(C)(C)c2c[c]3c(cc21)-c1cc2c(c[n+]1[Ir-3]314([c]3cc5c(cc3-c3cc6c(c[n+]31)C(C)(C)CC6(C)C)C(C)(C)CCC5(C)C)[c]1cc3c(cc1-c1cc5c(c[n+]14)C(C)(C)CC5(C)C)C(C)(C)CCC3(C)C)C(C)(C)CC2(C)C [Ir(LH16)3] | 24000 | 3.3 | 24.3
4 | CC1(C)CCC(C)(C)c2cc3cc(-c4cccc[c]4[Ir]([c]4ccccc4-c4ccccn4)[c]4ccccc4-c4cc5cc6c(cc5cn4)C(C)(C)CCC6(C)C)ncc3cc21 [Ir554] | 19000 | 3.0 | 19.688
5 | CC1(C)CCC(C)(C)c2c[c]([Ir]([c]3ccccc3-c3ccccn3)[c]3ccccc3-c3ccccn3)c(-c3nccc4cc5c(cc34)C(C)(C)CCC5(C)C)cc21 [Ir522] | 20000 | 3.1 | 18.2
6 | CC1(C)CCC(C)(C)c2c[c]3c(cc21)-c1cc2ccccc2c[n+]1[Ir-3]312([c]3cc4c(cc3-c3cc5ccccc5c[n+]31)C(C)(C)CCC4(C)C)[c]1cc3c(cc1-c1cc4ccccc4c[n+]12)C(C)(C)CCC3(C)C [Ir(LH9)3] | 17000 | 3.0 | 19.6
7 | CC1(C)CCC(C)(C)c2cc(-c3nccc4ccccc34)[c-]cc21.CC1(C)CCC(C)(C)c2cc(-c3nccc4ccccc34)[c-]cc21.CC1(C)CCC(C)(C)c2cc(-c3nccc4ccccc34)[c-]cc21.[Ir+3] [Ir(LH61)3] | 21000 | 3.0 | 18.0
8 | CC1(C)CCC(C)(C)c2cc(-c3cc4c(c[c]3[Ir]([c]3cc5c(cc3-c3cc6c(cn3)C(C)(C)CCC6(C)C)C(C)(C)C(C)(C)C5(C)C)[c]3cc5c(cc3-c3cc6c(cn3)C(C)(C)CCC6(C)C)C(C)(C)C(C)(C)C5(C)C)C(C)(C)C(C)(C)C4(C)C)ncc21 [Ir(LH42)3] | 24000 | 3.3 | 24.3
9 | CC1(C)CCC(C)(C)c2cc(-c3cc4c(c[c]3[Ir]([c]3ccccc3-c3ccccn3)[c]3ccccc3-c3ccccn3)C(C)(C)CCC4(C)C)ncc21 [Ir529] | 25000 | 3.2 | 24.3
10 | CC1(C)CCC(C)(C)c2cc3c[n+]4c(cc3cc21)-c1cccc[c]1[Ir-3]412([c]3ccccc3-c3cc4cc5c(cc4c[n+]31)C(C)(C)CCC5(C)C)[c]1ccccc1-c1cc3cc4c(cc3c[n+]12)C(C)(C)CCC4(C)C [Ir(LH33)3] | 14000 | 3.1 | 19.2
11 | Cc1cccnc1-c1cc2c(c[c]1[Ir]([c]1ccccc1-c1ccccn1)[c]1ccccc1-c1ccccn1)C(C)(C)CCC2(C)C [Ir506] | 20000 | 3.1 | 24.0
12 | CC1(C)CCC(C)(C)c2c[c]([Ir]([c]3ccc(-c4ccccc4)cc3-c3ccccn3)[c]3cc4c(cc3-c3cc5ccccc5cn3)C(C)(C)CCC4(C)C)c(-c3cc4ccccc4cn3)cc21 [Ir539] | – | 3.1 | 19.5
13 | CC1(C)CCC(C)(C)c2cc3c(-c4cccc[c]4[Ir]([c]4ccccc4-c4ccccn4)[c]4ccccc4-c4ccccn4)nccc3cc21 [Ir520] | 18000 | 3.1 | 17.2
14 | Cc1ccc2nc(-c3cc4c(c[c]3[Ir]([c]3ccccc3-c3ccccn3)[c]3ccccc3-c3ccccn3)C(C)(C)CCC4(C)C)c(C)cc2c1 [Ir509] | 23000 | 3.1 | 19.5
15 | CC1(C)CCC(C)(C)c2cc3c(-c4cccc[c]4[Ir]([c]4ccccc4-c4ccccn4)[c]4ccccc4-c4nccc5cc6c(cc45)C(C)(C)CCC6(C)C)nccc3cc21 [Ir547] | 20000 | 3.0 | 18.9
16 | CC1(C)CCC(C)(C)c2c[c]([Ir]([c]3ccccc3-c3ccccn3)[c]3ccccc3-c3ccccn3)c(-c3cc(-c4ccccc4)ccn3)cc21 [Ir505] | 41000 | 2.9 | 23.9
17 | CC1(C)CCC(C)(C)c2c[c]([Ir]([c]3cc4c(cc3-c3cc5c(cn3)C(C)(C)CC5(C)C)C(C)(C)CCC4(C)C)[c]3cc4c(cc3-c3cc5c(cn3)C(C)(C)CC5(C)C)C(C)(C)CCC4(C)C)c(-c3ccccn3)cc21 [Ir543] | 25000 | 3.3 | 24.3

Row | SMILES | LT80 (h) 1000 cd/m^2 [h] | Voltage (V) 1000 cd/m^2 [V] | EQE (%) 1000 cd/m^2 [%]
18 | CC1(C)CCC(C)(C)c2cc3c4[n+](ccc3cc21)[Ir-3]12([c]3cc5c(cc3-4)C(C)(C)CC5(C)C)([c]3cc4c(cc3-c3c5cc6c(cc5cc[n+]31)C(C)(C)CCC6(C)C)C(C)(C)CC4(C)C)[c]1cc3c(cc1-c1c4cc5c(cc4cc[n+]12)C(C)(C)CCC5(C)C)C(C)(C)CC3(C)C [Ir(LH32)3] | 18000 | 3.2 | 18.9
19 | CC1(C)CCC(C)(C)c2c[c]([Ir]([c]3ccccc3-c3ccccn3)[c]3ccccc3-c3ccccn3)c(-c3cc4ccccc4cn3)cc21 [Ir508] | – | 3.0 | 22.6
20 | CC1(C)CCC(C)(C)c2cc(-c3cccc[c]3[Ir]([c]3ccccc3-c3cc4c(cn3)C(C)(C)CCC4(C)C)[c]3ccccc3-c3cc4c(cn3)C(C)(C)CCC4(C)C)ncc21 [Ir(LH35)3] | 22000 | 3.2 | 22.8
21 | Cc1cccc2c1ccc1[n+]2[Ir-3]23([c]4cc5c(cc4-1)C(C)(C)CCC5(C)C)([c]1cc4c(cc1-c1ccc5c(C)cccc5[n+]12)C(C)(C)CCC4(C)C)[c]1cc2c(cc1-c1ccc4c(C)cccc4[n+]13)C(C)(C)CCC2(C)C [Ir(LH4)3] | – | 3.1 | 18.5
22 | Cc1nc2cc3c(cc2nc1-c1cccc[c]1[Ir]([c]1ccccc1-c1ccccn1)[c]1ccccc1-c1ccccn1)C(C)(C)CCC3(C)C [Ir517] | 11000 | 3.2 | 17.4
23 | CC1(C)CCC(C)(C)c2cc3c4[n+](ccc3cc21)[Ir-3]12([c]3ccccc3-4)([c]3ccccc3-c3c4cc5c(cc4cc[n+]31)C(C)(C)CCC5(C)C)[c]1ccccc1-c1c3cc4c(cc3cc[n+]12)C(C)(C)CCC4(C)C [Ir(LH26)3] | 19000 | 3.0 | 18.5
24 | CC(C)(C)c1ccc2[n+](c1)[Ir-3]13([c]4cc5c(cc4-2)C(C)(C)CCC5(C)C)([c]2cc4c(cc2-c2ccc(C(C)(C)C)c[n+]21)C(C)(C)CCC4(C)C)[c]1cc2c(cc1-c1ccc(C(C)(C)C)c[n+]13)C(C)(C)CCC2(C)C [Ir(LH3)3] | 20000 | 3.3 | 24.1
25 | [2H]c1c([2H])c([2H])[c]([Ir]([c]2c([2H])c([2H])c([2H])c([2H])c2-c2cc3c(cn2)C(C)(C)CCC3(C)C)[c]2c([2H])c([2H])c([2H])c([2H])c2-c2cc3c(cn2)C(C)(C)CCC3(C)C)c(-c2cc3c(cn2)C(C)(C)CCC3(C)C)c1[2H] [Ir(LH36)3] | 25000 | 3.2 | 23.4
26 | CC(C)(C)c1ccc(-c2nccc3cc4c(cc23)C(C)(C)CCC4(C)C)[c]([Ir]([c]2ccccc2-c2cc3ccccc3cn2)[c]2cc(C(C)(C)C)ccc2-c2nccc3cc4c(cc23)C(C)(C)CCC4(C)C)c1 [Ir548] | 22000 | 3.0 | 19.5
27 | CC(C)(C)c1ccc(-c2nccc3cc4c(cc23)C(C)(C)CCC4(C)C)[c]([Ir]([c]2ccccc2-c2ccccn2)[c]2ccccc2-c2ccccn2)c1 [Ir521] | 18000 | 3.1 | 17.8
28 | Cc1cccnc1-c1cccc[c]1[Ir]([c]1cc2c(cc1-c1ncccc1C)C(C)(C)CCC2(C)C)[c]1cc2c(cc1-c1ncccc1C)C(C)(C)CCC2(C)C [Ir538] | 24000 | 3.2 | 24.0
29 | CC(C)(C)c1c[n+]2c(cn1)-c1cc3c(c[c]1[Ir-3]214([c]2cc5c(cc2-c2cnc(C(C)(C)C)c[n+]21)C(C)(C)CCC5(C)C)[c]1cc2c(cc1-c1cnc(C(C)(C)C)c[n+]14)C(C)(C)CCC2(C)C)C(C)(C)CCC3(C)C [Ir(LH8)3] | – | 3.0 | 21.3
30 | CC1(C)CCC(C)(C)c2cc3nc(-c4cccc[c]4[Ir]([c]4ccccc4-c4ccccn4)[c]4ccccc4-c4ccccn4)cnc3cc21 [Ir516] | – | 3.1 | 17.1
31 | CC1(C)CCC(C)(C)c2cc3cc(-c4cccc[c]4[Ir]([c]4ccccc4-c4ccccn4)[c]4ccccc4-c4ccccn4)ncc3cc21 [Ir524] | 21000 | 3.0 | 19.3
32 | Cc1cccnc1-c1cccc[c]1[Ir]([c]1cc2c(cc1-c1cc(-c3ccccc3)ccn1)C(C)(C)CCC2(C)C)[c]1cc2c(cc1-c1cc(-c3ccccc3)ccn1)C(C)(C)CCC2(C)C [Ir537] | 40000 | 2.9 | 22.1
33 | CC(C)(C)c1cnc(-c2cc3c(c[c]2[Ir]([c]2ccccc2-c2ccccn2)[c]2ccccc2-c2ccccn2)C(C)(C)CCC3(C)C)cn1 [Ir507] | 20000 | 3.2 | 22.8
